Results on three molecules are retold here after patent US7255856.

Assay [1] concerns the target T1, F3 of fibulin-5 expressed from pGEX-4T1 (GST fusion, purified soluble fraction) (mouse) (UniProt Q9WVH9).
T1 sequence (looked up): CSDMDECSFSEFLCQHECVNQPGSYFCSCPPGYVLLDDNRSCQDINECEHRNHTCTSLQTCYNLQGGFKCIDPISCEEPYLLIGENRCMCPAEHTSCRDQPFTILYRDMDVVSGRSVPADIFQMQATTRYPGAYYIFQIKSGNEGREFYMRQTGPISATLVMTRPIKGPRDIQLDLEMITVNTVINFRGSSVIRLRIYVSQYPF
The experiment in a line: GST pull-down (legend of FIG. 3B).

For assay [2], the target named is T1, F3 of fibulin-5 expressed from pGEX-4T1 (GST fusion, purified soluble fraction) (mouse). Briefly: GST pull-down with purified L3 and F3 fragments, glutathione Sepharose beads, immunoblot.
Assay [3] deals with fibulin-5 (prey found in the adult rat lung library, pACT2 vector) (rat (adult rat lung library)) (UniProt Q9WVH8). The experiment in a line: yeast two-hybrid library screen (adult rat lung library, full-length LOXL1 bait).
For assay [4], the target named is fibulin-5 (endogenous, in wild-type mouse tissue extracts) (mouse) (UniProt Q9WVH9). The experiment in a line: co-immunoprecipitation from lung extracts (legend of FIG. 3C).
Assay [5] shares this target. Briefly: co-immunoprecipitation from wild-type mouse lung extract with α-LOXL1C antibody and protein G-agarose.

These are yes or no findings as the source states them, for the method shown. For some assays here: Binding seen in cells or lysates may run through a third protein. Some entries that bind do so weakly or less than the wild type. For some assays here: Sequences can lack the tags named with a protein.

B1: L3 of LOXL1 expressed from pET-28a (T7-tagged, purified soluble fraction) (protein, not shown: large carriers)
chain: PPYAANVPPEAYVPPRAVEPQPPFRVLEPPYLPVRSSDAPSQGGERNGAQQGRLSVGSVYRPNQNGRGL
As for B1, the binding entry in assay [1] and in assay [2] was “binds” each time.

B2: full-length LOXL1 (yeast two-hybrid bait) (enzyme)
chain: QPGQGSDPGRWRQLIQWENNGQVYSLLNSGSEYVPAGPQRGETSSRVLLAGAPQTSQRRSQGGPRRRQAPSLPLPGRVGSDTVRGQTRHPFGFGQVPDNWREVAVGDSTGMARARTSVSQQRHGGSASSSVSASAFATTYRQPSSYPQQFPYPQAPFVNQYENYDPASRTYEQGYVYYRGAGGGMGAGAAAVASAGVIYPFQPRARYEDYGGGGGEEQPEYPAQGFYPAPERPYVPQPQPQPQPQPQPQPQPSDGLDRRYSHSLYNEGTPGFEQAYPDPSTDVSQAPAGAGGTYGGAGDPRLGWYPPYAANVPPEAYVPPRAVEPQPPFRVLEPPYLPVRSSDAPSQGGERNGAQQGRLSVGSVYRPNQNGRGLPDLVPDPNYVQASTYVQRAHLYSLRCAAEEKCLASTAYAPEATDYDLRVLLRFPQRVKNQGTADFLPNRPRHTWEWHSCHQHYHSMDEFSHYDLLDASTGKKVAEGHKASFCLEDSTCDFGNLKRYACTSHTQGLSPGCYDTYNADIDCQWIDITDVQPGNYILKVHVNPKYIVLESDFTNNVVRCNIHYTGRYVSTTNCKIVQS
In the case of B2, the binding result in assay [3] is “binds”.

B3: LOXL1 (endogenous, in wild-type mouse tissue extracts) (enzyme)
chain: QPGQGSDPGRWRQLIQWENNGQVYSLLNSGSEYVPAGPQRGETSSRVLLAGAPQTSQRRSQGGPRRRQAPSLPLPGRVGSDTVRGQTRHPFGFGQVPDNWREVAVGDSTGMARARTSVSQQRHGGSASSSVSASAFATTYRQPSSYPQQFPYPQAPFVNQYENYDPASRTYEQGYVYYRGAGGGMGAGAAAVASAGVIYPFQPRARYEDYGGGGGEEQPEYPAQGFYPAPERPYVPQPQPQPQPQPQPQPQPSDGLDRRYSHSLYNEGTPGFEQAYPDPSTDVSQAPAGAGGTYGGAGDPRLGWYPPYAANVPPEAYVPPRAVEPQPPFRVLEPPYLPVRSSDAPSQGGERNGAQQGRLSVGSVYRPNQNGRGLPDLVPDPNYVQASTYVQRAHLYSLRCAAEEKCLASTAYAPEATDYDLRVLLRFPQRVKNQGTADFLPNRPRHTWEWHSCHQHYHSMDEFSHYDLLDASTGKKVAEGHKASFCLEDSTCDFGNLKRYACTSHTQGLSPGCYDTYNADIDCQWIDITDVQPGNYILKVHVNPKYIVLESDFTNNVVRCNIHYTGRYVSTTNCKIVQS
Take B3: the binding result in assay [4] and in assay [5] was “binds” in each case.
